# Literature values in US9241954B2, “Lipopolysaccharide of ochrobactrum intermedium and their use as immunostimulant of mammalians” (LABORATORIOS OVEJERO, S.A., priority 2009, dated 2016).
# At least one structure is not confirmed: it was looked up by name or label, or the drawing left a doubt.
# Tested on: severe sepsis patients
# Settings: severe sepsis patients (TAK-242: subgroup with high IL-6 levels); cited from earlier work
structure (smiles),measurement,value
CCCCCC/C=C\CCCCCCCCCC(=O)N[C@H]1[C@H](OC[C@H]2O[C@H](OP(=O)(O)O)[C@H](NC(=O)CC(=O)CCCCCCCCCCC)[C@@H](OCCCCCCCCCC)[C@@H]2O)O[C@H](COC)[C@@H](OP(=O)(O)O)[C@@H]1OCC[C@@H](CCCCCCC)OC [Eritoran],mortality,reduction in mortality
